In PubChem BioAssay (NCATS):
This list was built around the results that the source calls inconclusive (neither active nor inactive); the mix of calls is not that of the screen. For some of these results: A potency beside an inconclusive call is a rough fit, not a confirmed value. The source made the active and inactive calls. Unless noted, calls come from the whole dose curve.

The chains behind the UniProt entries cited, without tags or fusion partners. Where a name states a change or a piece, a line headed by the entry shows the natural chain unless it says otherwise.
UniProt P04150: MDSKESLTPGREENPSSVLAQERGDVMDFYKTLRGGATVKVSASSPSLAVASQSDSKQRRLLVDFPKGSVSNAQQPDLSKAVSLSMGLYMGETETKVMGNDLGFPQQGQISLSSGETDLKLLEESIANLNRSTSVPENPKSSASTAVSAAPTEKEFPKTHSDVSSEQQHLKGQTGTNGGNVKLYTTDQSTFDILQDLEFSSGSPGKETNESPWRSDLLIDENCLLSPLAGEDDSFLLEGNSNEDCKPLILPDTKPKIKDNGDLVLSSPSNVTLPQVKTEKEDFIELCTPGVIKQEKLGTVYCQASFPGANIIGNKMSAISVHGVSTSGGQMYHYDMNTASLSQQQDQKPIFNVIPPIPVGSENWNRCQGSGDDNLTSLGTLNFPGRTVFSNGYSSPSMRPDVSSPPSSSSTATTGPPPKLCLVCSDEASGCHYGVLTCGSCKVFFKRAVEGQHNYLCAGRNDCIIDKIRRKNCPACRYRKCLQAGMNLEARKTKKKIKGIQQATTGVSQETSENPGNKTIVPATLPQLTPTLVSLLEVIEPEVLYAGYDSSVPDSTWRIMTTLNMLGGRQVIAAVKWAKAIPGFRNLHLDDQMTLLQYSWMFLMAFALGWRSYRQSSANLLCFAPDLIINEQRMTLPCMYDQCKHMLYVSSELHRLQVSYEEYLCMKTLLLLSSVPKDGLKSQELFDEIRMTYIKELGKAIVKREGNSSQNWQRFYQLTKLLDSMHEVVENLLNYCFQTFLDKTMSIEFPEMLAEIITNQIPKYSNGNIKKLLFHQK

Columns and labels:
[1] = Stat Signaling Pathway (AID 446; active = well fitted curve in either direction with a large enough effect, not every such curve was filed as active; inconclusive = small, poorly fitted or top-dose-only effect, or another doubt;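 note: ME-180 cervical cancer cells given 40 pM IL-6 alongside compound; SIE-controlled beta-lactamase reporter measured as 460/530 nm FRET emission ratio; % is set by controls: 0 for no effect and ±100 for the full control effect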); settings: ME-180 SIE beta-lactamase reporter, IL-6 stimulated, 5 h
How it was run: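 Reporter line: ME-180 cervical carcinoma, SIE-beta-lactamase. Treatment: compound with 40 pM IL-6, 5 hrs, 37 C, in low-serum OPTI-MEM with 10 mM HEPES pH 7.3. Detection: 460/530 nm fluorescence.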

[2] = qHTS Assay for Identification of Small Molecule Antagonists for NFkB Signaling Pathway (AID 895; active = well fitted inhibition curve with a large enough effect in the signal ratio, with a control signal flat, not every such curve was filed as active; inconclusive = small, poorly fitted or top-dose-only effect, or effect the other way, or a change in a side signal; the % refers to the signal ratio; note: % is set by controls: 0 for no effect and ±100 for the full control effect); settings: NFkB beta-lactamase reporter cells, FRET ratio 460/530; activity change, negative = inhibition: at 38.3 µM (top of the series) unless noted
How it was run: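 ME-180 NFkB-bla cells (beta-lactamase under NFkB response element), plated overnight, treated with compound then 10 pM TNF alpha (about EC50) for 5 hrs at 37 C. LiveBLAzer FRET read at 460/530 nm emission, 405 nm excitation.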

[3] = qHTS Assay for Identification of Small Molecule Antagonists for Thrombopoietin (TPO) Signaling Pathway (AID 918; active = well fitted curve in the direction sought with a large enough effect; inconclusive = small, poorly fitted or top-dose-only effect, or another doubt; inactive = no such curve, though single readings can be large; an effect the other way counts as inactive or inconclusive); settings: TPO-dependent cell signaling reporter, antagonist mode; activity change, negative = inhibition: at 38.5 µM (top of the series)
How it was run: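 Ba/F3 (murine, hTPO-R, GPIIb-luc reporter); overnight IL-3 withdrawal; cpd + TPO 26 pM final (EC50); 24 h 37 C/5% CO2; Steadylite luminescence after 10 min RT.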

[4] = qHTS Assay for Identification of Small Molecule Agonists for Thrombopoietin (TPO) Signaling Pathway (AID 917; active = well fitted curve in the direction sought with a large enough effect; inconclusive = small, poorly fitted or top-dose-only effect, or another doubt; inactive = no such curve, though single readings can be large; an effect the other way counts as inactive or inconclusive; note: % is set by controls: 0 for no effect and ±100 for the full control effect)
How it was run: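 Murine Ba/F3 cells stably expressing human TPO receptor and a Glycoprotein IIb promoter–luciferase reporter were IL-3-starved overnight, then treated with compounds plus TPO (26 pM final, its EC50) for 24 hrs at 37 C; luminescence was read.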

[5] = S16 Schwann cell viability assay (CellTiter-Glo assay) (AID 624031; active = well fitted curve in the direction sought with a large enough effect; inconclusive = small, poorly fitted or top-dose-only effect, or another doubt; inactive = no such curve, though single readings can be large; an effect the other way counts as inactive or inconclusive; note: potency is the fitted concentration of half-maximal effect; nearly all actives have a fitted effect of over 70% in size)
How it was run: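 Following overnight culture in 10% FBS DMEM, parental S16 rat Schwann cells are dosed for 24 h at 37 °C. Viability is read as CellTiter-Glo luminescence and expressed as % activity relative to DMSO (0%) and no-cell wells.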

[6] = S16 Schwann cell PMP22 intronic element beta-lactamase assay (AID 624044); settings: S16 rat Schwann cells, PMP22 element beta-lactamase FRET, 24 h; ratio activity, negative = inhibition: at 38.3 µM (top of the series) unless noted;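 note: 0% = DMSO and -100% = potassium clavulanate positive control; nearly all actives have a fitted effect of over 15% in size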
How it was run: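 Rat S16 Schwann cells with beta-Lac driven by a PMP22 intronic element, compound-treated 24 h at 37 °C. LiveBLAzer FRET B/G read: 460 nm normalized to potassium clavulanate vs DMSO; 535 nm FRET as viability; concentration-effect curves classified.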

[7] = system: CP215; assay: qHTS profiling for inhibitors of Plasmodium falciparum proliferation (AID 504749; active = well fitted curve in the direction sought with a large enough effect; inconclusive = small, poorly fitted or top-dose-only effect, or another doubt; inactive = no such curve, though single readings can be large; an effect the other way counts as inactive or inconclusive; note: nearly all actives have a fitted effect of over 60% in size; note: potency is the fitted concentration of half-maximal effect;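 for activity, negative = inhibition: 0% = DMSO vehicle and full inhibition = artemisinin control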); settings: P. falciparum in erythrocytes, SYBR Green DNA, 72 h; series mostly up to 28.7 µM
How it was run: (§1)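 P. falciparum-infected erythrocytes (0.3% parasitemia, 2.5% hematocrit) incubated with compound 72 h at 37 C, 5% CO2. Parasite DNA detected by SYBR Green after lysis, overnight at room temperature; normalised to 0.29 uM artemisinin and DMSO.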

[8] = system: CP238; assay: as above; settings: P. falciparum in erythrocytes, SYBR Green DNA, 72 h; series mostly up to 28.7 µM
How it was run: as §1

[9] = system: CP247; assay: as above; settings: P. falciparum in erythrocytes, SYBR Green DNA, 72 h; series mostly up to 28.7 µM
How it was run: as §1

[10] = system: CP250; assay: as above; settings: P. falciparum in erythrocytes, SYBR Green DNA, 72 h; series mostly up to 28.7 µM
How it was run: as §1

[11] = system: CP260; assay: as above; settings: P. falciparum in erythrocytes, SYBR Green DNA, 72 h; series mostly up to 28.7 µM
How it was run: as §1

[12] = system: CP335; assay: as above; settings: P. falciparum in erythrocytes, SYBR Green DNA, 72 h; series mostly up to 28.7 µM
How it was run: as §1

[13] = system: DIV14; assay: as above; settings: P. falciparum in erythrocytes, SYBR Green DNA, 72 h; series mostly up to 28.7 µM
How it was run: as §1

[14] = system: P94_40; assay: as above; settings: P. falciparum in erythrocytes, SYBR Green DNA, 72 h; series mostly up to 28.7 µM
How it was run: as §1

[15] = system: PC26; assay: as above; settings: P. falciparum in erythrocytes, SYBR Green DNA, 72 h; series mostly up to 28.7 µM
How it was run: as §1

[16] = system: TAB109; assay: as above; settings: P. falciparum in erythrocytes, SYBR Green DNA, 72 h; series mostly up to 28.7 µM
How it was run: as §1

[17] = system: W2; assay: as above; settings: P. falciparum in erythrocytes, SYBR Green DNA, 72 h; series mostly up to 28.7 µM
How it was run: as §1

[18] = target: Glucocorticoid receptor (Homo sapiens) (UniProt P04150); assay: GR-EFC Redistribution (AID 451); settings: CHO-K1 GR-EFC translocation, beta-gal luminescence, 2 h; note: potency is the fitted concentration of half-maximal effect
How it was run: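 CHO-K1 cells expressing nuclear EA and GR-ED fragments of b-gal; compounds titrated up to 46 uM final, 2 h at 37 C. GR nuclear translocation read as complemented b-gal luminescence after 1 h RT detection.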

[19] = target: Glucocorticoid receptor (Homo sapiens) (UniProt P04150); assay: GR-GFP Redistribution (AID 450;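 active = compounds whose dose series gives a full or clear partial fitted curve of increased nuclear translocation; inconclusive = weak partial curve or effect only at the top dose; inactive = no dose-dependent translocation response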; note: potency is the fitted concentration of half-maximal effect); settings: U2OS GR-GFP nuclear translocation, laser cytometry, 2 h
[20] = Validation screen for inhibitors of Lassa infection (AID 463096); note: potency is the fitted concentration of half-maximal effect; for activity change, negative = inhibition: % is set by controls: 0 for no effect and ±100 for the full control effect
[21] = at 38 µM (top of the series) unless noted

SMILES: CC(C)(C)c1o[nH]c(=O)c1C[C@H](N)C(=O)O
- activity, negative = inhibition [1, 21]: inactive: -1.1%
- activity change, negative = inhibition [2]: inconclusive: -2.73% [at 38.3 µM, stimulated with 10 pM TNF alpha]
- activity change, negative = inhibition [3]: inconclusive: -11.9% [phenotype inactive]

SMILES: C#CCN(C)[C@@H](C)Cc1ccccc1
- activity, negative = inhibition ([1]; at 17.2 µM (top of the series)): inactive: 5.71%
- activity, negative = inhibition ([1]; at 38 µM (top of the series)): inactive: -20.6%
- Potency [2]: inactive
- Potency [4]: inactive
- activity change, negative = inhibition [3]: inconclusive: 9.88% [phenotype inactive]
- Potency [5]: inconclusive: 721 nM [cytotoxic, full curve, poor fit]
- Potency [6]: inactive
- Potency [7]: inactive
- Potency [8]: inactive
- Potency [9]: inactive
- Potency [10]: inconclusive: 1 µM [inhibitor, single point]
- Potency [11]: inconclusive: 12.6 µM [inhibitor, single point]
- Potency [12]: inactive
- Potency [13]: inconclusive: 15.1 µM [inhibitor, partial curve, poor fit]
- Potency [14]: inactive
- Potency [15]: inactive
- Potency [16]: inconclusive: 2.51 µM [inhibitor, single point]
- Potency [17]: inactive

SMILES: CCN(CC)c1ncnc2c1ncn2[C@@H]1O[C@@H](COP(=O)(O)OP(=O)(O)C(Br)(Br)P(=O)(O)O)[C@H](O)[C@@H]1O
- Potency [18]: inactive: > 46 µM
- activity change, negative = inhibition [3]: inconclusive: -9.95% [phenotype inactive]

SMILES: N[C@@H](Cc1ccccc1)P(=O)(O)O
- Potency [19]: inactive: > 46 µM

SMILES: CN1CCCC2(CCN(C(=O)c3csnn3)CC2)C1
- activity, negative = inhibition [1, 21]: inconclusive: 22.2% [activator] [at 7.69 µM]

SMILES: Nc1nc(Nc2ccccc2)nc2c1ncn2[C@@H]1O[C@H](CO)[C@H](O)[C@H]1O
- Potency [20]: inactive

SMILES: NCCC(=O)NCCc1cnc[nH]1
- Potency [20]: inactive

SMILES: CC[C@@H]1Cc2cc(O)ccc2C2=C1c1ccc(O)cc1C[C@H]2CC
- Potency [20]: inconclusive: 10 µM [inhibitor, single point]

SMILES: NCC(O)c1ccc(O)c(O)c1 (stereo unspecified)
- Potency [20]: inactive

SMILES: Cc1cc(NC(=O)Nc2ccc3c(ccn3C)c2)sn1
- Potency [20]: inconclusive: 0.316 µM [activator, partial curve]

SMILES: Cc1ccc(=O)n(-c2ccccc2)c1
- Potency [20]: inactive

SMILES: NC(=NCc1ccc(Cl)c(Cl)c1)NC(=O)c1nc(Cl)c(N)nc1N
- Potency [20]: inconclusive: 22.4 µM [inhibitor, single point]

SMILES: NCCSSCCN
- Potency [20]: inactive

SMILES: CCCCCCCCCCCCCCCCCC(=O)NCC(COP(=O)([O-])OCC[N+](C)(C)C)OCC (stereo unspecified)
- Potency [20]: inconclusive: 17.8 µM [inhibitor, partial curve, poor fit]

SMILES: Nc1nc(Cl)nc2c1ncn2[C@@H]1O[C@H](COP(=O)(O)OP(=O)(O)OP(=O)(O)O)[C@H](O)[C@H]1O
- Potency [20]: inactive

SMILES: N=C(N)SCCc1ccc(CCSC(=N)N)cc1
- Potency [20]: inconclusive: 22.4 µM [activator, single point]

SMILES: CNc1ncnc2c1ncn2[C@@H]1O[C@H](CO)[C@H](O)[C@H]1O
- Potency [20]: inconclusive: 8.91 µM [inhibitor, partial curve, poor fit]

SMILES: O=C(O)C1=CC(=C(c2ccc(O)c(C(=O)O)c2)c2ccc(O)c(C(=O)O)c2)C=CC1=O
- Potency [20]: inconclusive: 0.0089 µM [activator, full curve, poor fit]

SMILES: C[C@]12C=CC(=O)C=C1CC[C@H]1[C@@H]3C[C@@H](O)[C@](O)(C(=O)CO)[C@@]3(C)C[C@H](O)[C@@]12F
- Potency [20]: inactive

SMILES: Cc1nc2sccn2c(=O)c1CCN1CCC(=C(c2ccc(F)cc2)c2ccc(F)cc2)CC1
- Potency [20]: inconclusive: 14.1 µM [inhibitor, single point]

SMILES: CC[N+](CC)(CC)CC(=O)Nc1c(C)cccc1C
- Potency [20]: inactive

SMILES: CC(=O)OC(C)C[N+](C)(C)C (stereo unspecified)
- Potency [20]: inactive

SMILES: CC(=O)OCC1=C(C(=O)O)N2C(=O)[C@@H](NC(=O)Cc3cccs3)[C@H]2SC1
- Potency [20]: inactive

SMILES: OCC1O[C@H](O)C(Cl)C(O)C1O (stereo partly specified)
- Potency [20]: inactive

SMILES: CCCC[C@@]1(C2CCCC2)Cc2cc(OCC(=O)O)c(Cl)c(Cl)c2C1=O
- Potency [20]: inactive

SMILES: N[C@H](C(=O)O)[C@H]1C[C@@H]1C(=O)O
- Potency [20]: inconclusive: 0.0112 µM [activator, full curve, poor fit]
